Assay results: PMC9607361
No constants are given. Whether binding was seen depends on the method and setting. In cells and extracts the contact can be indirect. Some entries that bind do so weakly or less than the wild type. Sequences can lack the tags named with a protein.

Sequences of proteins named here, by UniProt entry; tags and fusion partners are left off.
UniProt Q6DV79: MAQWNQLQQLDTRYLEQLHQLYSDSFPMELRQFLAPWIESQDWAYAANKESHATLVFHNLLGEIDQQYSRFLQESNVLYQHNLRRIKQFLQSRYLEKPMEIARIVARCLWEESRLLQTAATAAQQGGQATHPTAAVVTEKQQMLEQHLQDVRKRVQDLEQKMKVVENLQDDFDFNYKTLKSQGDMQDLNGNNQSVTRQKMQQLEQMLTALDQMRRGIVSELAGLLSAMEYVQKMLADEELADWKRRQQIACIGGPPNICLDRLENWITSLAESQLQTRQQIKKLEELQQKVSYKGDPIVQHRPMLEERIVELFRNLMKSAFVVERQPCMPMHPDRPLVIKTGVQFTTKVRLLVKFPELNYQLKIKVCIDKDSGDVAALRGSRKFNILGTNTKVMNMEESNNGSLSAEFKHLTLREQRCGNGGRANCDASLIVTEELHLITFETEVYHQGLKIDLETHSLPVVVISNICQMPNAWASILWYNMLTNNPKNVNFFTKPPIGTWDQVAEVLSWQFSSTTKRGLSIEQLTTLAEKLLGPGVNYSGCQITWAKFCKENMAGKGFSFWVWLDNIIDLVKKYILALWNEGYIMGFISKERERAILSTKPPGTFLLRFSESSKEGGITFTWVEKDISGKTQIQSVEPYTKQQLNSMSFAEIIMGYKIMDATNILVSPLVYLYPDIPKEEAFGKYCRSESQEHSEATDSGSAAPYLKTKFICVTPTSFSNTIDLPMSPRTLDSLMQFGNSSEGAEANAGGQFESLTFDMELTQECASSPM

Key:
[1] = molecular target: T1, Flag-TRAF6 (chicken TRAF6) (chicken) (UniProt E1C626); experiment: co-IP; DF-1 cells co-transfected with Flag- and HA-tagged expression plasmids, cultured 48 h, lysed with NP-40, protein A/G; immunoblot
T1 sequence: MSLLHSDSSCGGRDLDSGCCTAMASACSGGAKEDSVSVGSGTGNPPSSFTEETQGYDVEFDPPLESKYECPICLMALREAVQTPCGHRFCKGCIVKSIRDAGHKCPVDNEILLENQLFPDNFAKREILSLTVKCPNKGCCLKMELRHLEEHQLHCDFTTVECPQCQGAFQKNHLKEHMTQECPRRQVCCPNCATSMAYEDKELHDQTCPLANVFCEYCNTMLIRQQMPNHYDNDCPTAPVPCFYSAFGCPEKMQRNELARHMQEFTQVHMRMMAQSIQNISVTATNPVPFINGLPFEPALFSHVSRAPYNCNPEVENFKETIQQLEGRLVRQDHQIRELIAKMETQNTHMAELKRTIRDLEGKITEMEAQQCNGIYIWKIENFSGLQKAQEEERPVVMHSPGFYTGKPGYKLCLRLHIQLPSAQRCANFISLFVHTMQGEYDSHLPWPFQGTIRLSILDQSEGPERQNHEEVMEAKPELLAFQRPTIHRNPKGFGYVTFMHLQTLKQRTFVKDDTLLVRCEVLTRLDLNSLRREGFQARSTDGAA

[2] = molecular target: T2, HA-TRAF6 (chicken TRAF6) (chicken) (UniProt E1C626); experiment: as above
T2 sequence: T1 sequence

binding [1]	binding [2]	Substance
binds	–	HA-STAT3 (chicken STAT3) (from UniProt Q6DV79 1-771)
–	binds	Flag-STAT3 (chicken STAT3) (from UniProt Q6DV79 1-771)
